Values of other authors, collected in patent US4683227A, “Antibiotic derivatives of 7β-[2-(thiazol-4-yl)acetamide]-3-chloro-3-cephem-4-carboxylic acids and compositions and method of use thereof” (Eli Lilly and Company, priority 1985, dated 1987).

Conditions: oral; background; cited from earlier work

## CC1=C(C(=O)O)N2C(=O)[C@@H](NC(=O)[C@H](N)c3ccccc3)[C@H]2SC1 [cephalexin]
  absorption from the gastrointestinal tract: high absorption
